How the values were obtained:
[1] = tested on: Enterococcus faecium isolate NTUH664; conditions: Sensititre GPN3F
[2] = tested on: Enterococcus faecium isolate NTUH688; conditions: Sensititre GPN3F

CN[C@H](CC(C)C)C(=O)N[C@H]1C(=O)N[C@@H](CC(N)=O)C(=O)N[C@H]2C(=O)N[C@H]3C(=O)N[C@H](C(=O)N[C@H](C(=O)O)c4cc(O)cc(O)c4-c4cc3ccc4O)[C@H](O)c3ccc(c(Cl)c3)Oc3cc2cc(c3O[C@@H]2O[C@H](CO)[C@@H](O)[C@H](O)[C@H]2O[C@H]2C[C@](C)(N)[C@H](O)[C@H](C)O2)Oc2ccc(cc2Cl)[C@H]1O [vancomycin]
vancomycin MIC [1]: > 128 µg/mL
vancomycin MIC [2]: > 128 µg/mL

Reference: article PMC9603373 (Microbiology Spectrum, 2022)
